This is one part of the list. These are further read-outs of the screen, such as a control signal, another cell line or another target. No call is given for them. Most of these compounds were active or inconclusive in the main read-out, so they are no random draw. The note in brackets gives the kind of curve behind each potency; many fits are weak.
Assay: qHTS Assay to Find Inhibitors of Chronic Active B-Cell Receptor Signaling
Conditions: ABC-DLBCL IkBa-CBG/CBR reporter, luminescence ratio (green luciferase fused to IkBa over red control in TMD8 lymphoma cells), 4 h
How it was run: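 Compounds up to 46 uM were incubated four hours with TMD8 cells whose green CBG68 luciferase is fused to IkappaBalpha; red CBR luminescence normalised the signal, and concentration-effect curves were fitted to fusion, red and ratio data.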

[1] = measured here: CBR red luminescence, cell number
[2] = measured here: IkBa-CBG green luminescence

Row | SMILES | AC50 [1] | AC50 [2]
1 | COc1ccc2oc(=O)c(C(=O)N3CCN(c4ccccc4)CC3)cc2c1 | 8.91 µM [rising, partial curve, poor fit] | 
2 | CCN1C(=O)C2CCCCN2c2ccc(C(=O)NCCOC)cc21 (stereo unspecified) | 35.5 µM [rising, single point] | 
3 | CCCCNC(=O)CSc1nc2n[nH]c(C)c2c(=N)n1-c1cccc(Cl)c1C | 5.01 µM [falling, partial curve, poor fit] | 
4 | CCCc1c(O)c2ccccc2n(-c2ccccc2)c1=O | 11.2 µM [rising, partial curve, poor fit] | 
5 | N#Cc1c(N)nc(SCC(=O)NCc2ccc3c(c2)OCO3)c(C#N)c1-c1cccs1 | 15.8 µM [falling, single point] | 
6 | O=C(O)CCCCCN=Cc1c(O)c2ccccc2oc1=O | 0.447 µM [falling, full curve, poor fit] | 
7 | Cn1c(=O)[nH]c(=O)c2c1nc(Sc1ccccc1)n2CCc1ccccc1 | 5.17 µM [falling, full curve] | 
8 | NC(=O)C1CCN(c2nc(-c3ccccc3F)cs2)CC1 | 3.26 µM [rising, single point] | 
9 | O=C(/C=C/c1cccnc1)/C=C/c1cccnc1 | 3.55 µM [falling, full curve, poor fit] | 
10 | COc1ccc(NC(=S)/N=C(\N)Nc2nc(C)c3ccc(C)cc3n2)cc1 | 7.94 µM [falling, partial curve] | 
11 | C/C(Nc1ccc(C)cc1)=C(/C#N)C(N)=O | 2.59 µM [rising, partial curve] | 
12 | O=C(CCN1C(=O)/C(=C/c2ccc(F)cc2)SC1=S)N[C@@H](CO)Cc1ccccc1 | 4.47 µM [falling, partial curve, poor fit] | 
13 | O=C1c2ccccc2C(=O)N1CCc1nc(-c2ccc(Cl)cc2)no1 | 29.1 µM [rising, single point] | 
14 | Cn1c(CNC(=O)c2ccccc2F)nnc1SCC(=O)NCc1ccccc1 | 28.2 µM [rising, single point] | 
15 | CSc1ccc(-c2nc(CN(C)C3CCOC3)c(C)o2)cc1 (stereo unspecified) | 11.2 µM [rising, partial curve] | 
16 | COc1cc(OC)cc(N2C(=O)N(Cc3ccc(C(C)(C)C)cc3)c3ccccc3S2(=O)=O)c1 | 1.41 µM [rising, full curve] | 
17 | COC(=O)c1ccccc1OCCOCCOc1cccc2cccnc12 | 25.9 µM [falling, single point] | 
18 | O=C(NCCC1=CCCCC1)c1cc(-c2ccncc2)nc2ccccc12 | 4.47 µM [rising, single point] | 
19 | O=C(NNC(=S)NC(=O)c1cccs1)c1cccnc1 | 8.91 µM [falling, partial curve, poor fit] | 
20 | COCc1ccc(C(=O)N2CCCC(CCC(=O)NCc3ccccc3F)C2)o1 (stereo unspecified) | 0.631 µM [rising, full curve, poor fit] | 
21 | COCCn1c(-c2ccc(OC)cc2)nc2ccccc21 | 5.17 µM [falling, single point] | 
22 | O=C(CSC1CS(=O)(=O)c2cc([N+](=O)[O-])ccc21)NNC(=O)c1ccc(Cl)cc1 (stereo unspecified) | 11.2 µM [falling, partial curve] | 

Row | SMILES | AC50 [1] | AC50 [2]
23 | COc1ccc(NC(=O)CSc2nnc(CNC(=O)c3ccco3)n2-c2ccccc2OC)cc1 | 7.08 µM [falling, partial curve, poor fit] | 
24 | CSc1nnc2c3ccccc3n(CCc3ccccc3)c2n1 | 11.2 µM [falling, partial curve, poor fit] | 
25 | CCCCOc1ccc(C(=O)N/N=C/c2cn[nH]c2-c2ccc(OC)c(OC)c2)cc1 | 18.4 µM [falling, single point] | 
26 | Cc1cc(Nc2ccc(Cl)cc2)nc(-c2ccccc2O)n1 | 7.08 µM [rising, full curve] | 
27 | CCC(Oc1ccc(Br)cc1)C(=O)N1CCN(c2ncccn2)CC1 (stereo unspecified) | 15.8 µM [falling, single point] | 
28 | CCOC(=O)c1cc(NC(=O)CCC(=O)O)ccc1N1CCCCC1 | 35.5 µM [rising, single point] | 
29 | COc1ccc(C(=O)Cc2cnn(-c3ccccc3)c2)c(O)c1 | 5.8 µM [rising, full curve, poor fit] | 
30 | Cc1cc(C(=O)OCC(=O)Nc2ccccc2F)c(C)o1 | 14.1 µM [falling, partial curve, poor fit] | 
31 | COc1ccc(CN(C)C(=O)c2ccc(OCC(=O)Nc3cccc(C(F)(F)F)c3)c(OC)c2)c(OC)c1 | 29.1 µM [falling, partial curve, poor fit] | 
32 | O=C(O)/C=C/c1cn(-c2ccccc2)nc1-c1cc2ccccc2o1 | 0.158 µM [rising, full curve, poor fit] | 
33 | CCn1c2ccccc2c2cc(CC(N)=O)ccc21 | 25.1 µM [falling, single point] | 
34 | CC(C)(O)c1[nH]c2cc(C(F)(F)F)ccc2c1C(C)(C)O | 11.2 µM [rising, partial curve, poor fit] | 
35 | CCCCCc1ccc(OCCOCCn2c[n+](C)c3ccccc32)c(CCCCC)c1 | 20 µM [falling, partial curve, poor fit] | 
36 | CSCCC(NC(=O)COc1ccccc1)C(=O)N1CCN(c2ccccc2)CC1 (stereo unspecified) | 32.6 µM [falling, single point] | 
37 | O=C(CC(=O)c1cc(Cl)ccc1O)c1ccccc1 | 2.59 µM [rising, partial curve, poor fit] | 
38 | Cc1ccc(/C=C/C(=O)CCC(=O)O)cc1 | 35.5 µM [falling, single point] | 
39 | Cc1cc(C)cc(C(=O)Nc2cccnc2Cl)c1 | 10 µM [rising, partial curve, poor fit] | 
40 | O=C(NC(=S)Nc1ccc2[nH]ncc2c1)c1ccccc1 | 13 µM [falling, partial curve, poor fit] | 
41 | COc1cc(NC(=O)c2c(F)c(F)c(F)c(F)c2F)c(OC)cc1Cl | 23.1 µM [falling, single point] | 
42 | CCOC(=O)N1CCN(C(=O)C2CCN(S(=O)(=O)c3ccc(Cl)cc3)CC2)CC1 | 10.3 µM [falling, partial curve, poor fit] | 
43 | Cn1c(=O)[nH]c(=O)c2c1nc(N1CCN(CCO)CC1)n2Cc1ccccc1Cl |  | 15.8 µM [falling, partial curve, poor fit]
44 | COc1cc(C(=O)Nc2nc3ccc(S(C)(=O)=O)cc3s2)cc(OC)c1C | 0.562 µM [falling, full curve, poor fit] | 

Row | SMILES | AC50 [1] | AC50 [2]
45 | CCn1c(/C=C/c2ccccc2)nc2ccccc2c1=O | 25.1 µM [falling, single point] | 
46 | CCOc1ccc2c(c1)OC(c1ccc(OC)cc1)(C(F)(F)F)NC2=O (stereo unspecified) | 23.1 µM [rising, single point] | 14.6 µM [falling, partial curve]
47 | CCOc1ccc(S(=O)(=O)N(CC(N)=O)c2ccc(C)cc2)cc1 | 29.1 µM [rising, single point] | 
48 | O=C(NCCCc1nc2ccccc2[nH]1)c1ccc(F)cc1 | 5.01 µM [falling, full curve, poor fit] | 
49 | COc1cccc(NC(=O)NCc2ccccc2F)c1 | 11.2 µM [falling, partial curve] | 
50 | CCC(=O)c1c(NC)cc(C)oc1=O | 25.1 µM [falling, single point] | 
51 | Cc1cc(C)cc(NC(=O)CSc2nnc(-c3ccccc3)n2N)c1 | 35.5 µM [falling, single point] | 
52 | COc1cc(OC)c(N(C)C(=O)CCNC(=O)Cn2cnc3ccccc3c2=O)cc1Cl | 0.164 µM [rising, full curve, poor fit] | 
53 | CC(=O)Nc1ccc(NC(=O)C(C)O/N=C/c2cccc([N+](=O)[O-])c2)cc1 (stereo unspecified) | 2.06 µM [falling, partial curve, poor fit] | 
54 | CCO[C@H]1OC(C(=O)N2CCCCCCC2)=C[C@@H](c2ccc(C(F)(F)F)cc2)[C@@H]1CCCO | 1.78 µM [rising, partial curve, poor fit] | 
55 | CCOc1ccc(OCCSc2nc3ccccc3n2CC(=O)O)cc1 | 12.6 µM [falling, partial curve, poor fit] | 
56 | CCOC(=O)C1=C(C)N=C2SCCC(=O)N2C1c1ccc(C(=O)OC)cc1 (stereo unspecified) | 8.2 µM [rising, partial curve] | 
57 | O=C(NC(NC(=S)Nc1c(Cl)cc(Cl)cc1Cl)C(Cl)(Cl)Cl)OCc1ccccc1 (stereo unspecified) | 29.1 µM [falling, single point] | 
58 | CCOc1cc(C(=S)N2CCCC2)ccc1OCc1ccccc1 | 11.2 µM [falling, partial curve, poor fit] | 
59 | O=c1[nH]c2cc(NCCO)c([N+](=O)[O-])cc2[nH]1 | 14.1 µM [rising, partial curve, poor fit] | 
60 | COc1ccc(OC)c(-n2c(=S)[nH]c3cc(C(=O)N(C)Cc4ccccc4)ccc3c2=O)c1 | 35.5 µM [falling, single point] | 
61 | Oc1ccccc1C1=Nc2nc3ccccc3n2C(c2ccccc2)C1 (stereo unspecified) | 18.4 µM [falling, single point] | 
62 | S=C1SCN(Cc2ccccc2)CN1Cc1ccccc1 | 15.8 µM [falling, partial curve] | 17.8 µM [falling, partial curve, poor fit]
63 | Cc1[nH]c2ccc(C(=O)OC(C)C(=O)N(C)c3ccccc3)cc2c1C (stereo unspecified) | 29.1 µM [falling, single point] | 
64 | c1ccc(Cc2nnc3sc(-c4cccs4)nn23)cc1 | 1.46 µM [falling, full curve] | 

Another view of some results above.

| Row | SMILES | AC50 [1] | AC50 [2] |
| --- | --- | --- | --- |
| 59 | O=c1[nH]c2cc(NCCO)c([N+](=O)[O-])cc2[nH]1 | 14.1 µM [rising, partial curve, poor fit] |  |
| 60 | COc1ccc(OC)c(-n2c(=S)[nH]c3cc(C(=O)N(C)Cc4ccccc4)ccc3c2=O)c1 | 35.5 µM [falling, single point] |  |
| 61 | Oc1ccccc1C1=Nc2nc3ccccc3n2C(c2ccccc2)C1 (stereo unspecified) | 18.4 µM [falling, single point] |  |
| 62 | S=C1SCN(Cc2ccccc2)CN1Cc1ccccc1 | 15.8 µM [falling, partial curve] | 17.8 µM [falling, partial curve, poor fit] |

From PubChem BioAssay AID493014 (National Center for Advancing Translational Sciences (NCATS), 2011)
